Data reported in paper PMC12040169 (PLOS Biology, 2025).
This is one part of the list.

Test system: T1, CTL2-GFP (C. trachomatis L2/434/Bu, GFP-expressing)
T1 construct: L2/434/Bu, GFP-expressing
Set-up: species or system HeLa; Intracellular C. trachomatis growth in HeLa cells, bulk GFP fluorescence relative to DMSO
Settings: bulk GFP, single well; 28.5 h, 10 µM; inhibitor

Compared with COc1ccc(S(=O)(=O)Nc2sccc2C#N)cc1 [CBK034732], COc1ccc(N2C(=O)CC(Sc3ncccc3C(=O)O)C2=O)cc1 (stereo not shown) [CBK263387] is higher in “% of control remaining” value: 128.299% for the first, 134.344% for the second.

Compared with CNC(=O)c1ccc(-c2ccc(N3CCOCC3)cc2)nc1NCC1CC1 [CBK106305], CN1CCN(C)C(CNC(=O)c2ccc(-c3ccccc3CO)cc2)C1 (stereo not shown) [CBK307475] is lower in “% of control remaining” value: 114.567% for the first, 114.5% for the second.

First: Cc1cc(C)c2nc(-c3ccccn3)cc(C(=O)Nc3cccc(Cn4cccn4)c3)c2c1 [CBK267723]
Second: O=C(Cn1cccn1)NC(Cc1ccsc1)c1ccccn1 (stereo not shown) [CBK285284]
The “% of control remaining” value of the first is higher: 122.123% for the first, 121.258% for the second.

Compared with CC(=O)c1csc(NC(=O)Cn2ccc3ccc(F)cc32)n1 [CBK282572], Cc1ccc(NC(=O)CCC(=O)O)c(C(=O)c2ccccc2)c1 [CBK262611] is higher in “% of control remaining” value: 87.7795% for the first, 100% for the second.

Compared with CC1CN(c2cc(CO)c(F)cn2)CC2(CCOCC2)O1 (stereo not shown) [CBK304773], O=C1CC2(CCN(C(=O)C3CCCC3)CC2)Oc2ccc(Cl)cc21 [CBK283625] is lower in “% of control remaining” value: 123.473% for the first, 102.002% for the second.

Going from COC(=O)COc1ccccc1/C=C1\SC(c2ccc(C)cc2)=NC1=O [CBK067741] to CCCn1c(NCc2cccc(OC)c2O)nc2ccccc21 [CBK133763], the “% of control remaining” value falls from 128.7% to 120.503%.

Going from CCOc1ccccc1NC(=O)NC1CC2CCC(C1)N2Cc1ccccc1 (stereo not shown) [CBK116294] to c1ccc(Cc2nn3c(COc4ccccc4)nnc3s2)cc1 [CBK267163], the “% of control remaining” value rises from 100% to 150.939%.

Compared with Cc1cc(NC(=O)c2ccc(Cl)c([N+](=O)[O-])c2)nc2c1c(=O)oc1ccccc12 [CBK291263], Cc1cc2ccccc2n2c(SCC(=O)NCc3ccco3)nnc12 [CBK265666] is lower in “% of control remaining” value: 136.315% for the first, 115.426% for the second.

Compared with O=C(NCCN1CCC(O)(c2cccc(F)c2)CC1)C1CCCC1 [CBK283285], CCNC(=O)C1CCN(Cc2c[nH]nc2-c2ccc(F)cc2)C1 (stereo not shown) [CBK307438] is lower in “% of control remaining” value: 121.951% for the first, 100.297% for the second.

Compared with O=C(NCc1ccccn1)Nc1cccc(Cl)c1 [CBK058569], CC(=O)Nc1ccc(Sc2ccccn2)cc1 [CBK085853] is lower in “% of control remaining” value: 116.566% for the first, 97.4462% for the second.

Going from O=C(CCc1ccno1)NC(Cc1ccsc1)c1cccnc1 (stereo not shown) [CBK285395] to OCc1ccccc1-c1cncc(NCc2ccc3c(c2)OCO3)n1 [CBK065318], the “% of control remaining” value falls from 127.109% to 99.4804%.

Going from CN(C)c1cccc(C(=O)N2CC[C@@H](c3ccccc3)[C@H](O)C2)c1 [CBK283713] to N#Cc1cccc(NC(=O)CN2CCN(C(=O)C3COc4ccccc4O3)CC2)c1 (stereo not shown) [CBK074779], the “% of control remaining” value falls from 143.695% to 130.501%.

Going from O=C(Nc1cccc2[nH]ccc12)c1ccc(Br)cc1Cl [CBK159643] to CC(=O)Nc1ccc(-c2ccc(C(=O)N3CCN(C(=O)c4ccco4)CC3)cn2)cc1 [CBK160186], the “% of control remaining” value falls from 106.152% to 85.2736%.

Going from CCN(CC)CCn1cc(C2CCCN(C)CC2)c2ccccc21 (stereo not shown) [CBK023788B] to COc1ccccc1-c1ncc(OC2CCN(C)C2)nc1N (stereo not shown) [CBK145081], the “% of control remaining” value rises from 92.3962% to 148.909%.

Compared with Cc1ccccc1-n1c(C)cc(C(=O)CSc2nncn2C)c1C [CBK298330], Cc1cnn(-c2cc(Oc3ccccc3)ncn2)c1 [CBK287276] is lower in “% of control remaining” value: 102.331% for the first, 87.6872% for the second.

First: Cc1cc(CSc2cccs2)no1 [CBK002635]
Second: COc1ncc(-c2nccnc2OCc2cccs2)c(OC)n1 [CBK106750]
The “% of control remaining” value of the first is lower: 102.79% for the first, 133.641% for the second.

First: CC1CCN(C(=S)Nc2ccccc2)CC(C)(C)C1 (stereo not shown) [CBK006185]
Second: CCCCN(C=O)c1c(CC)nc2ccc(C(=O)NCC3CCCCC3)cn12 [CBK145708]
The “% of control remaining” value of the first is lower: 78.8523% for the first, 139.331% for the second.

Compared with CC(CO)(CO)Nc1ccc(C(F)(F)F)cc1[N+](=O)[O-] [CBK262806], COC(=O)c1cc(C#N)c(=O)n(CC(=O)Nc2ccc(OC)c(OC)c2)c1 [CBK297926] is higher in “% of control remaining” value: 85.0553% for the first, 139.405% for the second.

Compared with O=C(CSc1nnnn1-c1ccc(O)cc1)NC1CCCC1 [CBK295659], CCOc1ccc(C2CCCN2S(=O)(=O)c2c[nH]c(=O)[nH]c2=O)cc1 (stereo not shown) [CBK285806] is higher in “% of control remaining” value: 106.299% for the first, 124.96% for the second.

First: CN(C)CCO/N=C1\CC2(CCCC2)c2ccc(Cl)cc21 [CBK013334]
Second: Nc1nnc(-c2ccc(Oc3nc(N4CCOCC4)nc(N4CCOCC4)n3)cc2)s1 [CBK266305]
The “% of control remaining” value of the first is lower: 100% for the first, 173.616% for the second.
